Hit rate of the full screen: of about 340,000 compounds, about 170 (0.05%) were called active. The shares of active, inactive and inconclusive entries below differ from those in the screen. The call rests on the fitted dose curve; in most records, active means well fitted inhibition curve with a large enough effect in the signal ratio, with a control signal flat (not every such curve was filed as active); inconclusive means small, poorly fitted or top-dose-only effect, or effect the other way, or a change in a side signal; inactive means flat fitted curve, though single readings scatter; the % refers to the signal ratio. Potencies of inconclusive entries are doubtful fits and often do not repeat.
Test: qHTS Assay to Find Inhibitors of Chronic Active B-Cell Receptor Signaling;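 on activity change, negative = inhibition: plate controls were basal doxycycline-induced cells for no effect and cells given 10 µM MG132 for full effect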
Details: ABC-DLBCL IkBa-CBG/CBR reporter, luminescence ratio (green luciferase fused to IkBa over red control in TMD8 lymphoma cells), 4 h; activity change, negative = inhibition: at 46.1 µM (top of the series) unless noted
Summary of the method: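 Doxycycline induced both beetle luciferases in TMD8 lymphoma cells; IKK-driven degradation limits the IkappaBalpha-fused green signal, while red luminescence normalises for cell number and nonspecific effects. Compounds tested up to 46 uM, 4 hrs.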
Potency means the concentration at half of the fitted maximal effect.

Row | Structure (SMILES) | Potency | activity change, negative = inhibition
1 | CCOC(=O)c1c(NCC(C)C)c2ccccc2[nH]c1=O | inconclusive: 23.1 µM [falling, single point] | 
2 | FC(F)(F)c1cccc(NC(=S)NCCN2CCOCC2)c1 |  | inactive: -4.44%
3 | Cc1ccc(-n2ncc3c2CC(C)(C)CC3NC(=O)CCc2cccnc2)cc1 (configuration not stated) |  | inactive: -3.7%
4 | N#Cc1c(Nc2ccccc2)sc(C(=O)C2CC2)c1N |  | inconclusive: 11.8%
5 | C/C(CC(=O)NCc1ccccc1Cl)=N/NC(=O)c1ccccn1 | inconclusive: 31.6 µM [falling, partial curve] | 
6 | CCOC(=O)CNC(=O)C1Cc2ccccc2CN1S(=O)(=O)c1cccs1 (configuration not stated) |  | inconclusive: 8.98%
7 | COc1cccc(-c2nc(=S)c3c(n2Cc2ccco2)CCCC3)c1 |  | inactive: 3.71%
8 | Clc1ccc2c(c1)nc1n2CCCC1 |  | inconclusive: 18%
9 | CCC1(O)CC(C(=O)OC)=NN1C(=O)c1ccccc1 (configuration not stated) |  | inconclusive: 15%
10 | Cc1cc(Cl)ccc1C(=O)C1CCCN(C(=O)c2cccc(N3CCCC3=O)c2)C1 (configuration not stated) |  | inactive: 10.1%
11 | Cc1oc(-c2ccccc2Cl)[n+]([O-])c1C |  | inconclusive: -28.9%
12 | CSc1ccc(CCNC(=O)c2ccc(CS(=O)Cc3ccc(Cl)cc3)o2)cc1 (configuration not stated) |  | inconclusive: -0.59%
13 | COc1cc(C(C#N)N2CCC(c3ccccc3)=N2)ccc1O (configuration not stated) |  | inconclusive: 7.29%
14 | Cc1[nH]n(-c2ccccc2)c(=O)c1/C=N/NC(=O)c1cccc([N+](=O)[O-])c1 |  | inconclusive: -2.91%
15 | Fc1ccc(C2CC(c3cccs3)=NN2C(=S)Nc2ccccc2)cc1 (configuration not stated) |  | inactive: 3.79%
16 | COCc1cc(=O)[nH]c(Nc2nc(C)c3ccccc3n2)n1 | inconclusive: 7.31 µM [falling, partial curve, poor fit] | 
17 | COc1cccc(CN2CC(C(=O)N3CCCO3)CCC2=O)c1 (configuration not stated) |  | inactive: -0.102%
18 | CC1=NNC(=O)C1CCC(=O)N/N=C(\C)c1ccccc1 (configuration not stated) | inconclusive: 35.5 µM [falling, single point] | 
19 | Cc1nc(Cl)sc1C(=O)Nc1ccc(C(F)(F)F)cc1 | inconclusive: 10 µM [rising, partial curve, poor fit] | 
20 | CCOC(=O)N1CCN(c2ccc(S(=O)(=O)N3CCOCC3)cn2)CC1 |  | inactive: -1.67%
21 | O=C(Nc1cccc(Cl)c1)C1CCCN(C2=NS(=O)(=O)c3ccccc32)C1 (configuration not stated) |  | inactive: 0.0483%

Row | Structure (SMILES) | Potency | activity change, negative = inhibition
22 | CC1CCCCN1S(=O)(=O)c1ccc(C(=O)Nc2nnc(C3CC3)o2)cc1 (configuration not stated) |  | inactive: 4.23%
23 | CCOCc1nnc(NC(=O)c2cc(Cl)ccc2OC)s1 |  | inconclusive: -0.902%
24 | CCCCCCN1CC(=O)N2Cc3[nH]c4ccccc4c3C[C@H]2C1=O |  | inactive: 7.76%
25 | Cc1csc(NC(=O)c2cccs2)n1 | inconclusive: 1.84 µM [rising, full curve] | 
26 | COc1ccc(NC(=O)Nc2c(C)noc2-c2ccccc2)cc1 |  | inconclusive: 14.6%
27 | COC(=O)CNC(=O)CSc1nc2c(sc(=S)n2-c2ccccc2)c(=O)[nH]1 |  | inactive: -2.45%
28 | c1ccc(CSc2ccc(-c3ccccn3)nn2)nc1 |  | inconclusive: 6.53%
29 | O=C(O)c1cccc(NC(=S)NC(=O)c2ccncc2)c1 | inconclusive: 22.4 µM [falling, partial curve] | 
30 | CNc1nn(-c2cccc(Cl)c2)nc1N |  | inactive: 8.96%
31 | CCCc1nc(NC(C)=O)c(C#N)c(-c2ccco2)c1CC |  | inconclusive: 1.49%
32 | Cc1ccc(C)c(N2CCN(C(=O)CCS(=O)(=O)c3ccc4c(c3)CCN4C(=O)C3CC3)CC2)c1 |  | inactive: 0.857%
33 | COCCn1c(SCC(=O)Nc2ccc(OC)c(S(N)(=O)=O)c2)nc2ccccc21 |  | inconclusive: -2.86%
34 | COc1ccccc1CNC(=O)C(=O)c1cn(CC(=O)N2CCCC2)c2ccccc12 | inconclusive: 2.82 µM [falling, partial curve, poor fit] | 
35 | COc1ccc(OC)c(NC(=O)COC(=O)c2n[nH]c3ccccc23)c1 |  | inconclusive: -8.17%
36 | Cn1nc(C(F)(F)F)c(-c2cccc(C(F)(F)F)c2)c1NC(=O)Nc1ccc(F)cc1 |  | inconclusive: 18.4%
37 | COc1ccccc1N(C)S(=O)(=O)c1ccc(Cl)c(C(=O)NC2=NCCS2)c1 |  | inactive: 4.97%
38 | COCc1nnc(NC(=O)C(C)C)s1 |  | inconclusive: 2.43%
39 | Cc1ccc(O)c(/C=N/NC(=O)Cc2ccc(Cl)cc2)c1 |  | inactive: -1.57%
40 | O=C(Nc1ccc2c3c(cccc13)CC2)c1cccc([N+](=O)[O-])c1 |  | inconclusive: 12.1%
41 | c1cc[n+](CCCC[n+]2ccccc2)cc1 |  | inactive: -0.382%
42 | COc1ccccc1CNC(=O)COC(=O)c1cccc(-n2cnnn2)c1 |  | inconclusive: 2.21%

An excerpt of these results, as labelled records:
Cc1cc(Cl)ccc1C(=O)C1CCCN(C(=O)c2cccc(N3CCCC3=O)c2)C1 (configuration not stated)
  activity change, negative = inhibition: inactive: 10.1%
CC1=NNC(=O)C1CCC(=O)N/N=C(\C)c1ccccc1 (configuration not stated)
  Potency: inconclusive: 35.5 µM [falling, single point]
COc1ccccc1CNC(=O)COC(=O)c1cccc(-n2cnnn2)c1
  activity change, negative = inhibition: inconclusive: 2.21%

(list continues)

Row | Structure (SMILES) | Potency | activity change, negative = inhibition
43 | O=C(Nc1nc(-c2ccccn2)cs1)c1cc(Cl)ccc1[N+](=O)[O-] | inconclusive: 11.2 µM [falling, partial curve] | 
44 | CCCOc1ccccc1N1C(=O)CC(N(O)c2ccccc2)C1=O (configuration not stated) |  | inactive: -11.8%
45 | Cc1ccc(S(=O)(=O)N2CCN(C(=O)CSC3CCCC3)CC2)c(C)c1 |  | inconclusive: -4.4%
46 | C/C(=N\NS(C)(=O)=O)c1ccc(C)cc1 |  | inconclusive: -12.2%
47 | COc1ccc(S(=O)(=O)Nc2cccc(-c3ccc(N4CCCCCC4)nn3)c2)c(OC)c1 |  | inconclusive: -11.6%
48 | COc1ccc(CC(=O)NNc2ncnc3c2cnn3-c2ccc(C)cc2)cc1 |  | inconclusive: 8.23%
49 | O=C(c1cc(-c2cccnc2)nc2ccc(Br)cc12)N1CCN(c2ncccn2)CC1 |  | inactive: -0.52%
50 | CNC[C@H](NC[C@@H](NCCCc1ccccc1)c1ccccc1)[C@H](C)O | inconclusive: 35.5 µM [falling, single point] | 
51 | O=C(COC(=O)c1cc([N+](=O)[O-])ccc1NCc1ccccc1)NCc1ccccc1Cl |  | inconclusive: 4.49%
52 | O=C(CN1CCN(Cc2ccc(F)cc2)C1=O)NC1CCCC1 |  | inconclusive: 2.33%
53 | Cc1ccc2c(c1)CCCN2C(=O)c1cc2ccccc2oc1=O |  | inconclusive: 4.25%
54 | Cc1cc(C)c2nc(NC(=O)c3ccc([N+](=O)[O-])o3)sc2c1 | inconclusive: 15.8 µM [falling, partial curve] | 
55 | CCOC(=O)Cn1nnnc1C(CC)N(Cc1cccs1)Cc1cc2ccc(OC)cc2[nH]c1=O (configuration not stated) | inconclusive: 7.94 µM [falling, partial curve, poor fit] | 
56 | Cc1ccc(CN2C(=O)C3CCCN3c3ncccc32)cc1 (configuration not stated) |  | inconclusive: 4.51%
57 | CCOC(=O)Cn1c(=O)n(Cc2ccco2)c(=O)c2ccc(C(=O)NCCc3ccccc3)cc21 |  | inconclusive: 9.32%
58 | Cc1cccc(/N=C/c2sc3ccccc3c2O)n1 | inconclusive: 12.6 µM [falling, partial curve, poor fit] | 
59 | CCC(O)CNc1nc(SC)nc2sc3c(c12)CCN(C)C3 (configuration not stated) |  | inconclusive: -0.077%
60 | CCN(CC)CC(O)COc1ccc2c(c1)OCO2 (configuration not stated) |  | inactive: -4.98%
61 | Cc1ccc(NC(=O)CN(c2cc(C)cc(C)c2)S(=O)(=O)c2c(C)noc2C)nc1 |  | inconclusive: 6.84%
62 | NC(=O)c1ccccc1NC(=O)Nc1ccccc1Cl | inconclusive: 4.47 µM [falling, partial curve, poor fit] | 
63 | Cc1ccc(S(=O)(=O)N2C(=O)C(c3ccccc3)SC2=Nc2ccccc2)cc1 (configuration not stated) | inconclusive: 16.4 µM [falling, partial curve] | 

Row | Structure (SMILES) | Potency | activity change, negative = inhibition
64 | COc1cc(OC)cc(C(=O)OCC(=O)Nc2ccc(F)cc2F)c1 |  | inconclusive: -1.65%
65 | O=C(N=Nc1c(O)[nH]c2ccccc12)c1ccc2c(c1)OCO2 | inconclusive: 3.55 µM [falling, partial curve] | 
66 | Cn1ccnc1Sc1cc(Cl)ccc1[N+](=O)[O-] |  | inconclusive: 1.67%
67 | COc1ccc2o/c(=N\O)c(C(=O)Nc3ccc(C)cc3)cc2c1 |  | inactive: 4.41%
68 | O=C(O)CCCN1C(=O)/C(=C/c2ccc(-c3nc4ccccc4s3)o2)SC1=S | inconclusive: 25.9 µM [falling, partial curve, poor fit] | 
69 | CCOc1cccc(-c2nc3cc(C)ccc3o2)c1 |  | inconclusive: 0.298%
70 | COc1ccc(C(CNC(=O)c2cc3ccccc3o2)N2CCCC2)cc1 (configuration not stated) |  | inactive: -7.34%
71 | CCCc1nnc(SCC(=O)NC2CC2)n1C |  | inconclusive: -8.32%
72 | COc1ccccc1NS(=O)(=O)c1c(C)[nH]c(C)c1C(=O)N1CCCC1 |  | inactive: 1.77%
73 | CN(C)c1ccc(C(c2nnnn2C(C)(C)C)N2CCc3ccccc3C2)cc1 (configuration not stated) |  | inactive: 2.76%
74 | CCOc1ccccc1NC(=O)C1C2C=CC(C2)C1C(=O)O (configuration not stated) |  | inconclusive: -4.94%
75 | COc1ccc(C2CC(=O)c3cnc(NC(=O)c4ccccc4)nc3C2)cc1OC (configuration not stated) | inconclusive: 8.2 µM [falling, partial curve] | 
76 | COc1cc2[nH]c(C(=O)N3CCc4ccccc4C3)cc2c(OC)c1OC | inconclusive: 3.55 µM [falling, full curve] | 
77 | CCN(c1ccccc1)S(=O)(=O)c1ccc(N2CCN(c3ccc(O)cc3)CC2)nc1 |  | inconclusive: -2.58%
78 | CCOC(=O)Cc1csc(NC(=S)NC(=O)c2ccc(Cl)cc2)n1 | inconclusive: 8.91 µM [falling, partial curve, poor fit] | 
79 | Cc1noc(C)c1C(=O)OCC(=O)N(C)C1(C#N)CCCCC1 | inconclusive: 23.1 µM [falling, single point] | 
80 | CCN(c1ccccc1)S(=O)(=O)c1nnc(NC(=O)c2ccco2)s1 | inconclusive: 10 µM [rising, partial curve, poor fit] | 
81 | CCOC(=O)C1=C(CC)Nc2ccccc2N=C1NC(=O)c1cc(C)on1 |  | inconclusive: -1.12%
82 | COc1cccc(/C=C2\SC(=S)N(CCCC(=O)N3CCCCC3)C2=O)c1 | inconclusive: 35.5 µM [falling, single point] | 

— PubChem BioAssay AID493014 (National Center for Advancing Translational Sciences (NCATS), 2011)
